Measurements reported in patent US20260232684A1, “FLT3 INHIBITORS AND METHODS OF USING THE SAME” (BIOVENTURES, LLC, priority 2023, published 2026).

Test system: Ba/F3 cells transduced with mutagenized FLT3-ITD
Assay: Saturation mutagenesis resistance selection (XL1-Red mutagenized FLT3-ITD)
Assay type: cell-based
Settings: cells cultured in 120 nM drug; Western blot quantification normalized to GAPDH
Description: FIG. 10. (A) Schematic depicting the saturation mutagenesis experimental design and the range of concentrations for compound 1 and compound 2 to select for resistant cells; (B) Population doublings of XL1-Red-mutagenized FLT3-ITD plasmid-transduced Ba/F3 cells in escalating concentrations of compound 1 and compound 2. Arrows indicate the timepoint of passage when a concentration of 0.1 million cells/mL was achieved; (C) Western blot analysis of lysates collected from transduced Ba/F3 cells cultured in (lane 1) vehicle; (lane 2) 120 nM of compound 1; (lane 3) 120n M of compound 2 (lane 4) Ba/F3 cells transduced with MSCVpuro; (lane M) size marker. […] Left table: identity of mutations detected at escalating concentrations of compounds 1 and 2. Right table: IC50 values of compounds 1 and 2 in Ba/F3 cells transformed to growth factor independence with FLT3-ITD and various mutant isoforms.
To determine if these compounds are potentially vulnerable to novel secondary mutations in FLT3-ITD, Ba/F3 cells were transduced with retrovirus generated using MSCVpuro/FLT3-ITD plasmid purified from the XL1-Red bacterial strain, which is deficient in DNA mismatch repair and introduces random point mutations. This assay has successfully identified point mutations for other FLT3 TKIs that were subsequently validated in samples obtained from patients with acquired resistance. […]

| Compound | FLT3-ITD overexpression in resistant cells compared with cells propagated in vehicle [×] |
| --- | --- |
| CC(C)(C)c1cc(NC(=O)Cc2ccc(-c3cnc4cc(-c5cnn(CCN6CCOCC6)c5)ccc4n3)cc2)no1 [Compound 2, N-(5-(tert-butyl)isoxazol-3-yl)-2-(4-(6-(1-(2-morpholinoethyl)-1H-pyrazol-4-yl)quinoxalin-2-yl)phenyl) acetamide] | 17.11 |
| CN(C)CCNc1ncc(F)c(-c2cnc3cc(-c4cnn(C)c4)ccn23)n1 [Compound 1] | 28.89 |
